{"source": "PubChem BioAssay AID504784 (Drosophila RNAi Screening Center, 2011)", "purpose": "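Search for regulators of lipid droplet storage in oleate-fed fly cells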 (primary screen)", "system": "Drosophila Kc167 embryonic cells", "reagent": "long dsRNA against Drosophila genes, about 250 ng dsRNA per well", "timing": "4 days", "conditions": "cells fed 400 µM oleic acid bound to BSA", "detection": "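Cells imaged and segmented; ratio of lipid droplet area to nuclear area, log-transformed, then normalised as a B-score over the screen; higher means more stored lipid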", "direction": "droplet/nuclear area B-score: higher = more stored lipid (overstorage)", "note": "The deposit covers about 17,000 reagents; shown is a random part of those that have a named target and a result. 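Each column is one replicate's B-score; the combined score over replicates was not deposited, so single values may mislead.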 Further read-outs or replicates are left out here. No sequences are given here."}
{"predicted target":"CG9184","amplicon":"DRSC08636","droplet/nuclear area B-score, replicate 1":-0.872}
{"predicted target":"CG9184","amplicon":"DRSC22184","droplet/nuclear area B-score, replicate 1":-0.309}
{"predicted target":"Tmem131","amplicon":"DRSC07154","droplet/nuclear area B-score, replicate 1":-0.258}
{"predicted target":"Cyp4ad1","amplicon":"DRSC07369","droplet/nuclear area B-score, replicate 1":-0.518}
{"predicted target":"CG30384","amplicon":"DRSC06032","droplet/nuclear area B-score, replicate 1":-0.898}
{"predicted target":"CG32447","amplicon":"DRSC11732","droplet/nuclear area B-score, replicate 1":-1.52}
{"predicted target":"CG32447","amplicon":"DRSC11805","droplet/nuclear area B-score, replicate 1":0.244}
{"predicted target":"Nxt1","amplicon":"DRSC04630","droplet/nuclear area B-score, replicate 1":-0.763}
{"predicted target":"eIF3g1","amplicon":"DRSC18427","droplet/nuclear area B-score, replicate 1":2.19}
{"predicted target":"halo","amplicon":"DRSC00705","droplet/nuclear area B-score, replicate 1":-1.97}
{"predicted target":"CG9676","amplicon":"DRSC20204","droplet/nuclear area B-score, replicate 1":0.349}
{"predicted target":"l(2)03659","amplicon":"DRSC07269","droplet/nuclear area B-score, replicate 1":-0.519}
{"predicted target":"l(2)03659","amplicon":"DRSC07638","droplet/nuclear area B-score, replicate 1":-1.53}
{"predicted target":"oaf","amplicon":"DRSC00831","droplet/nuclear area B-score, replicate 1":0.65}
{"predicted target":"CG15115","amplicon":"DRSC06537","droplet/nuclear area B-score, replicate 1":1.36}
{"predicted target":"Brca2","amplicon":"DRSC04219","droplet/nuclear area B-score, replicate 1":-1.36}
{"predicted target":"Brca2","amplicon":"DRSC04220","droplet/nuclear area B-score, replicate 1":-0.452}
{"predicted target":"Psn","amplicon":"DRSC11743","droplet/nuclear area B-score, replicate 1":0.0423}
{"predicted target":"PVRAP","amplicon":"DRSC09966","droplet/nuclear area B-score, replicate 1":-1.6}
{"predicted target":"PVRAP","amplicon":"DRSC10577","droplet/nuclear area B-score, replicate 1":-2.3}
{"predicted target":"CG31784","amplicon":"DRSC01574","droplet/nuclear area B-score, replicate 1":0.25}
{"predicted target":"Rop","amplicon":"DRSC08693","droplet/nuclear area B-score, replicate 1":0.0296}
{"predicted target":"Bcat","amplicon":"DRSC19756","droplet/nuclear area B-score, replicate 1":0.791}
{"predicted target":"CG8004","amplicon":"DRSC10947","droplet/nuclear area B-score, replicate 1":-0.429}
{"predicted target":"Acp26Aa","amplicon":"DRSC01855","droplet/nuclear area B-score, replicate 1":-3.29}
{"predicted target":"Srr","amplicon":"DRSC16382","droplet/nuclear area B-score, replicate 1":2.25}
{"predicted target":"Mtp","amplicon":"DRSC03216","droplet/nuclear area B-score, replicate 1":-0.191}
{"predicted target":"CG33272","amplicon":"DRSC09116","droplet/nuclear area B-score, replicate 1":-4.87}
{"predicted target":"CR14798","amplicon":"DRSC17956","droplet/nuclear area B-score, replicate 1":-0.551}
{"predicted target":"CG13332","amplicon":"DRSC06367","droplet/nuclear area B-score, replicate 1":0.0132}
{"predicted target":"CG31820","amplicon":"DRSC21318","droplet/nuclear area B-score, replicate 1":0.174}
{"predicted target":"Osi13","amplicon":"DRSC12281","droplet/nuclear area B-score, replicate 1":2.2}
{"predicted target":"CG5062","amplicon":"DRSC18385","droplet/nuclear area B-score, replicate 1":-2.38}
{"predicted target":"wfs1","amplicon":"DRSC15676","droplet/nuclear area B-score, replicate 1":-0.745}
{"predicted target":"Slc45-1","amplicon":"DRSC10427","droplet/nuclear area B-score, replicate 1":2.43}
{"predicted target":"CG15535","amplicon":"DRSC15071","droplet/nuclear area B-score, replicate 1":-1.31}
{"predicted target":"E(var)3-9","amplicon":"DRSC14451","droplet/nuclear area B-score, replicate 1":-0.477}
{"predicted target":"E(var)3-9","amplicon":"DRSC23242","droplet/nuclear area B-score, replicate 1":0.645}
{"predicted target":"PK2-R2","amplicon":"DRSC16448","droplet/nuclear area B-score, replicate 1":-0.364}
{"predicted target":"Clk","amplicon":"DRSC11117","droplet/nuclear area B-score, replicate 1":-0.365}

Laid out differently: entries from further up.
| predicted target | amplicon | droplet/nuclear area B-score, replicate 1 |
| --- | --- | --- |
| l(2)03659 | DRSC07638 | -1.53 |
| oaf | DRSC00831 | 0.65 |
| CG15115 | DRSC06537 | 1.36 |
| Brca2 | DRSC04219 | -1.36 |
